Here are results for three substances from paper doi:10.1101/2021.06.09.447721.

Amino acid sequences for entries named in this document (tags omitted). Residues count along the entry.
UniProt P23975, whole entry: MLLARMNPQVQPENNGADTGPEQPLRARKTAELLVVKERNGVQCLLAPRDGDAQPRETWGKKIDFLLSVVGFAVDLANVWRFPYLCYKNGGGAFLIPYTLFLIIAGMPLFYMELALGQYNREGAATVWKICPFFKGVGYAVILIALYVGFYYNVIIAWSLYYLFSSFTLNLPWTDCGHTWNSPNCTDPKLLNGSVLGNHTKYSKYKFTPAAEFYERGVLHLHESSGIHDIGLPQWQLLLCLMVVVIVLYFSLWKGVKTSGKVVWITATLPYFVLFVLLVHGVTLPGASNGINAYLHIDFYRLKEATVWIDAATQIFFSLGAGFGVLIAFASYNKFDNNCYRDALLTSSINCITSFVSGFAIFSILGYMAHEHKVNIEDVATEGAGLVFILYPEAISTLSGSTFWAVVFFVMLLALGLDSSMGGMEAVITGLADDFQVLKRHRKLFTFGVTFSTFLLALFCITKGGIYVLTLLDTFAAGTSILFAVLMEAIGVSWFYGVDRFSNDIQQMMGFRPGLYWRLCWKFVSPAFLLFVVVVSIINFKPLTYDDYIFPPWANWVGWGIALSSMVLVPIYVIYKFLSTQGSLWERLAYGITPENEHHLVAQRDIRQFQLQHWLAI
UniProt P23975, 570-617: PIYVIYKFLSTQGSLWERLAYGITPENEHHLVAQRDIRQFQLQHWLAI
UniProt P30531, whole entry: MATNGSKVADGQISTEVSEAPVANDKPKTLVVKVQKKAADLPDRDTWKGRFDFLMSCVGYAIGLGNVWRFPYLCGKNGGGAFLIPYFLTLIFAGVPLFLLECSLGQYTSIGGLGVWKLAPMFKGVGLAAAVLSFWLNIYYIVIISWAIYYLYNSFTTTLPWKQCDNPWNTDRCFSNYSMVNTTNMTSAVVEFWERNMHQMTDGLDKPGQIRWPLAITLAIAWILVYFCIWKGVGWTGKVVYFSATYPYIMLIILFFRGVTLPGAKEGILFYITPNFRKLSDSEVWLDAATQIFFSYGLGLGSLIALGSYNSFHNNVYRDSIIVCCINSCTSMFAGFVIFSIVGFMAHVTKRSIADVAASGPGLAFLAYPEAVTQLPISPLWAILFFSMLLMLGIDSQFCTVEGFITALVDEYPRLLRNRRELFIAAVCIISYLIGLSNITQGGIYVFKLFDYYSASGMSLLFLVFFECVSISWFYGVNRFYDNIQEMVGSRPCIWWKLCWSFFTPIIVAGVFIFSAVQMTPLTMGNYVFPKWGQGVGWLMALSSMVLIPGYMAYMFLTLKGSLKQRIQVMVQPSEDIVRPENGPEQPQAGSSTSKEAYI
UniProt Q01959, whole entry: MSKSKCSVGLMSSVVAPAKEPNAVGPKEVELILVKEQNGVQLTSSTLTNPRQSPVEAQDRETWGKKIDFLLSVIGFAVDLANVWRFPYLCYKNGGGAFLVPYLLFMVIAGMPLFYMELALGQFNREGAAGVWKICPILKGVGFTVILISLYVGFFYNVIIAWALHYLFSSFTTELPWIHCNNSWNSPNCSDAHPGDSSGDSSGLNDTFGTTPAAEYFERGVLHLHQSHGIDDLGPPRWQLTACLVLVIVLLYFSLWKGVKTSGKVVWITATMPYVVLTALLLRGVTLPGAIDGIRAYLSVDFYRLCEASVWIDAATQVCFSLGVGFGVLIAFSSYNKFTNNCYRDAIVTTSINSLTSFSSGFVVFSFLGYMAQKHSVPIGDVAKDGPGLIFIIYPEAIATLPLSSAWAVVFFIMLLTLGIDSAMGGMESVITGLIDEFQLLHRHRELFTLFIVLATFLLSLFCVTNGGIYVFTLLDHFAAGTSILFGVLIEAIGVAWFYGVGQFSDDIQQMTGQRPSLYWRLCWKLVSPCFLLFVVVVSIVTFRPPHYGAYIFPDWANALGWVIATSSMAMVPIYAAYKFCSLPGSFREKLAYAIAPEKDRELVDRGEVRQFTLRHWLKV
UniProt Q01959, 579-620: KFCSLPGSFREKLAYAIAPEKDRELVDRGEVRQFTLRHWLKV
UniProt O60566, whole entry: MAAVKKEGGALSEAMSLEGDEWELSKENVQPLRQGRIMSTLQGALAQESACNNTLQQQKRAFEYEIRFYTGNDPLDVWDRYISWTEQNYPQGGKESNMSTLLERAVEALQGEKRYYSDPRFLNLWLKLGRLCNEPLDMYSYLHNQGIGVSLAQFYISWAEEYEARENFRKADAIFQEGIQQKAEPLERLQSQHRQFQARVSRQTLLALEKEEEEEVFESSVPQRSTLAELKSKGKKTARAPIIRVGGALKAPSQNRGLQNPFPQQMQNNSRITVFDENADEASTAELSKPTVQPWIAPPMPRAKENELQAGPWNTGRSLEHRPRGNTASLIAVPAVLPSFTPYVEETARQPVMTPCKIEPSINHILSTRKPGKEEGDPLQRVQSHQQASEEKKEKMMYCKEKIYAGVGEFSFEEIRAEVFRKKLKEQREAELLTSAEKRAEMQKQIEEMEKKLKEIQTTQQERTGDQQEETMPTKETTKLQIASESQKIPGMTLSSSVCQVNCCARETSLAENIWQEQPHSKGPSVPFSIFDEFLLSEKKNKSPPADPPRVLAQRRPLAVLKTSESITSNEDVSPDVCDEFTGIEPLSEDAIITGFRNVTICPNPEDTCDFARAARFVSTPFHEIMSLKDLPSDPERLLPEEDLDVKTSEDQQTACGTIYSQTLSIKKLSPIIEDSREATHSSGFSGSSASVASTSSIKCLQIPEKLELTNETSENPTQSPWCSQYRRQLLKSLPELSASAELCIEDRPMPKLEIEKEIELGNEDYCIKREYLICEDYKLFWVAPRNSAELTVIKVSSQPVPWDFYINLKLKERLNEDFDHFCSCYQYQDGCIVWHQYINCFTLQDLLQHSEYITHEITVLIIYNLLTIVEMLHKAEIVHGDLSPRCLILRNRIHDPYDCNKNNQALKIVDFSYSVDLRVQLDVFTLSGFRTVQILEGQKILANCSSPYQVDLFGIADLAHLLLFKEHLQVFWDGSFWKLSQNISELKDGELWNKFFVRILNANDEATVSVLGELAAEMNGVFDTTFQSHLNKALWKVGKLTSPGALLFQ
UniProt Q13257, whole entry: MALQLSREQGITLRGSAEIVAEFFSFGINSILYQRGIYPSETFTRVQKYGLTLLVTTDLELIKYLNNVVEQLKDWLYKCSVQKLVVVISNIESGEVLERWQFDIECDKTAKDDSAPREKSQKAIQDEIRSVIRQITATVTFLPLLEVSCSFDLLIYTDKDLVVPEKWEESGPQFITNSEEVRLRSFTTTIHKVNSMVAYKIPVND
UniProt P04406, whole entry: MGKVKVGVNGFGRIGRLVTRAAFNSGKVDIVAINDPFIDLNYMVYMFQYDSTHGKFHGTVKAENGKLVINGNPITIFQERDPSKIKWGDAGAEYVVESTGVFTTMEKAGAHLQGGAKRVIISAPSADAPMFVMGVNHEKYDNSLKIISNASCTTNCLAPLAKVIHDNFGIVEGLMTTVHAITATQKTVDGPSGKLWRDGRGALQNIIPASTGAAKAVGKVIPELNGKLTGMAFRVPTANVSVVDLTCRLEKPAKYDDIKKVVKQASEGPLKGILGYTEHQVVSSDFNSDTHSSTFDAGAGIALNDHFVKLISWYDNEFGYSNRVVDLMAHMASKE

No constants are given. Whether binding was seen depends on the method and setting. Binding seen in cells or lysates may run through a third protein. Some entries that bind do so weakly or less than the wild type.

For one experiment, the target named is YFP-hNET (human) (UniProt P23975). The experiment can be described thus: co-IP.
Another experiment concerns the target YFP-hGAT1 (human) (UniProt P30531). The experiment can be described thus: co-IP.
The next experiment deals with YFP-hDAT (human) (UniProt Q01959). The experiment can be described thus: co-IP.
In the next experiment the target is GST-hDAT-Ct (human) (UniProt Q01959). Put plainly: pull-down.
For the next experiment, the target named is GST-hNET-Ct (human) (UniProt P23975). The experiment can be described thus: pull-down.

Take BubR1 (from UniProt O60566 1-1050): the binding entry with YFP-hNET (human), with YFP-hGAT1 (human), with YFP-hDAT (human), with GST-hDAT-Ct (human) and with GST-hNET-Ct (human) was “binds” throughout.

“MAD2 (endogenous) (from UniProt Q13257 1-205)”: the binding result in the experiment with YFP-hNET (human), in the experiment with YFP-hGAT1 (human), with YFP-hDAT (human), with GST-hDAT-Ct (human) and with GST-hNET-Ct (human) was “binds” throughout.

Take “glyceraldehyde 3-phosphate dehydrogenase (GAPDH) (from UniProt P04406 1-335)”: the binding result with YFP-hNET (human), with YFP-hGAT1 (human) and with YFP-hDAT (human) was “no binding” in each case.
